Patent publication US8133474B2, “Sensors for fluorescence and magnetic resonance imaging” (Massachusetts Institute of Technology, priority 2006, dated 2012)

Experiments:
[1] = Zinc fluorescence titration, quantum yield and apparent Kd in buffered solution; type: binding
[2] = Zinc-dependent MR relaxivity in buffered solutions; type: physicochemical; details: 25 mM Pipes buffer pH 7.0, 4.7 T
Procedure: MRI samples prepared as described above were arrayed into microtiter plates and placed in a 40-cm-bore Avance 4.7 T MRI scanner (Bruker, Billerica, Mass.). Unused wells were filled with PBS, and imaging was performed on a 2-mm slice through the sample. A spin echo pulse sequence with multiecho acquisition was used. The TR was fixed for every acquisition, and the TE was in defined increments. For example, for TR=100 ms, TE varied from 10 to 80 ms, with a 10-ms increment. To adjust further the weight between T1 and T2, various TRs were applied and the TE increment was changed accordingly, if necessary. Data matrices of 512×128 points were acquired and zero-filled to 256 points in the second (phase encoding) dimension. Images were reconstructed and analyzed by using custom routines running in Matlab (Mathworks, Natick, Mass.).
Insertion of a paramagnetic manganese(III) ion into the porphyrin core of compound 1 rendered the resulting (DPA-C2)2-TPPS3Mn(III) complex (compound 2) an MRI contrast agent. […] In some experiments, the repetition times (TRs) were varied so that both T1 and T2 could be evaluated. […]
The zinc-dependent MR relaxivity of compound 2 was first investigated in buffered solutions. […] The T1 values of zinc-free and zinc-saturated solutions were determined at various concentrations of compound 2, from which T1 relaxivity (R1) values could be deduced. […]

Compound | quantum yield, absence of zinc ([1]; zinc-free, 5 mM solution of 1 in 50 mM Hepes buffer (pH 7.0), 100 mM KCl, TPPS4 as reference) | quantum yield of zinc-saturated form relative to zinc-free form ([1]; zinc-saturated vs zinc-free) [times] | quantum yield, zinc-saturated form ([1]; zinc-saturated, 50 mM Hepes (pH 7.0), 100 mM KCl) | T1 relaxivity (R1), zinc-free form ([2]; zinc-free) [mM⁻¹ s⁻¹] | T1 relaxivity (R1), zinc complex ([2]; zinc-saturated) [mM⁻¹ s⁻¹]
O=S(=O)(O)c1ccc(-c2c3nc(c(-c4ccc(S(=O)(=O)O)cc4)c4ccc([nH]4)c(-c4c(NCCN(Cc5ccccn5)Cc5ccccn5)cccc4NCCN(Cc4ccccn4)Cc4ccccn4)c4nc(c(-c5ccc(S(=O)(=O)O)cc5)c5ccc2[nH]5)C=C4)C=C3)cc1 [compound 1, (DPA-C2)2-TPPS3] | 0.004 | > 10 | 0.046 | – | –
(DPA-C2)2-Mn(III)TPPS3 [compound 2] | – | – | – | 8.7 | 6.65
